Assay results published in US20100297119A1.
These are yes or no findings as the source states them, for the method shown. Some results given as binding are weak or reduced against the parent protein; the word gives no strength.

Target: TNALP ectodomain monomers (papain cleavage product of sTNALP-FcD10) (human) (UniProt P05186)
Experiment: SEC-HPLC in non denaturing conditions after papain digestion; self-association

B1: TNALP ectodomain monomers (papain cleavage product of sTNALP-FcD10) (enzyme)
chain: LVPEKEKDPKYWRDQAQETLKYALELQKLNTNVAKNVIMFLGDGMGVSTVTAARILKGQLHHNPGEETRLEMDKFPFVALSKTYNTNAQVPDSAGTATAYLCGVKANEGTVGVSAATERSRCNTTQGNEVTSILRWAKDAGKSVGIVTTTRVNHATPSAAYAHSADRDWYSDNEMPPEALSQGCKDIAYQLMHNIRDIDVIMGGGRKYMYPKNKTDVEYESDEKARGTRLDGLDLVDTWKSFKPRYKHSHFIWNRTELLTLDPHNVDYLLGLFEPGDMQYELNRNNVTDPSLSEMVVVAIQILRKNPKGFFLLVEGGRIDHGHHEGKAKQALHEAVEMDRAIGQAGSLTSSEDTLTVVTADHSHVFTFGGYTPRGNSIFGLAPMLSDTDKKPFTAILYGNGPGYKVVGGERENVSMVDYAHNNYQAQSAVPLRHETHGGEDVAVFSKGPMAHLLHGVHEQNYVPHVMAYAACIGANLGHCAPASS
  binding: binds
